Measured values reported in PubChem BioAssay AID493014 (National Center for Advancing Translational Sciences (NCATS), 2011).
The whole screen tested about 340,000 compounds, of which about 170 (0.05%) were called active. This list was built around the results that the source calls inconclusive (neither active nor inactive); the mix of calls is not that of the screen. Calls follow the shape of the dose curve; as a rule, active = well fitted inhibition curve with a large enough effect in the signal ratio, with a control signal flat (not every such curve was filed as active); inconclusive = small, poorly fitted or top-dose-only effect, or effect the other way, or a change in a side signal; inactive = flat fitted curve, though single readings scatter; the % refers to the signal ratio. A potency beside an inconclusive call is a rough fit, not a confirmed value.

Test: qHTS Assay to Find Inhibitors of Chronic Active B-Cell Receptor Signaling;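 as to activity change, negative = inhibition: plate controls were basal doxycycline-induced cells for no effect and cells given 10 µM MG132 for full effect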
Details: ABC-DLBCL IkBa-CBG/CBR reporter, luminescence ratio (green luciferase fused to IkBa over red control in TMD8 lymphoma cells), 4 h; activity change, negative = inhibition: at 46.1 µM (top of the series) unless noted
Outline: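 Doxycycline induced both beetle luciferases in TMD8 lymphoma cells; IKK-driven degradation limits the IkappaBalpha-fused green signal, while red luminescence normalises for cell number and nonspecific effects. Compounds tested up to 46 uM, 4 hrs.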
Potency is read from the fitted curve at half-maximal effect.

| SMILES | activity change, negative = inhibition | Potency |
| --- | --- | --- |
| COC(=O)N/N=C/c1ccccc1 | inconclusive: 8.75% |  |
| CCOc1ccccc1C(=O)Nc1cc2c(cc1N1CCCC1)n(CC)c(=O)n2CC | inconclusive: 8.41% |  |
| O=C(NCc1ccco1)C1CCN(C(=O)Cc2ccccc2)CC1 | inconclusive: 7.13% |  |
| COc1cccc(N2CCN(C(C)C(=O)NC34CC5CC(CC(C5)C3)C4)CC2)c1 (configuration not stated) | inconclusive: 1.74% |  |
| CC(=O)Nc1cccc(NCC(=O)Nc2cc(S(=O)(=O)N3CCCCC3)ccc2Cl)c1 |  | inconclusive: 25.9 µM [falling, partial curve, poor fit] |
| Cc1ccc(-c2nc3ccccc3[nH]2)cc1NC(=S)NC(=O)c1ccccc1Br | inconclusive: 19.6% |  |
| COc1ccc2nc(NC(=O)c3sc4nc(C)cc(C)c4c3N)sc2c1 | inconclusive: -12.8% |  |
| CCCCC(c1nnnn1CCOC)N1CCN(C(=O)c2ccco2)CC1 (configuration not stated) | inconclusive: 10.1% |  |
| CCC(C(=O)Nc1ncc(C)s1)c1ccccc1 (configuration not stated) | inconclusive: -0.518% |  |
| CCOC(=O)C1=CC[C@H]2c3c(c4ccccc4n3C)C(=O)C1N2S(=O)(=O)c1ccc(C)cc1 | inconclusive: -1.53% |  |
| CCOC(=O)c1nc2sc3c(c2c(=O)n1C(C)C(=O)OCC)CCCC3 (configuration not stated) | inactive |  |
| CC(C)Cn1c(N)c(C(=O)COC(=O)c2ccc(Cl)cc2)c(=O)n(C)c1=O | inactive |  |
| O=C1/C(=C/c2ccco2)SC(=S)N1CC1CCCO1 (configuration not stated) | inconclusive: 18.5% |  |
| Cc1cc([N+](=O)[O-])ccc1NC(=O)Nc1ccc(F)cc1F | inactive |  |
| Cc1ccc(N(CCC#N)C(=O)CSc2nnc3ccccn23)cc1 | inconclusive: 4.47% |  |
| CCC(=O)N1CCN(c2ccc(NC(=O)COc3ccc(C)cc3C)cc2)CC1 | inactive |  |
| CCCc1nn(CCc2ccccn2)c(N)c1CC | inconclusive: 5.35% |  |
| Nc1nc(Br)c2ccccc2c1-c1ccccc1 |  | inconclusive: 2.24 µM [falling, full curve, poor fit] |
| NS(=O)(=O)c1ccc(NC(=S)NC(=O)c2cccs2)cc1 | inconclusive: -8.42% |  |
| Cc1ccc(S(=O)(=O)NCCC(=O)Nc2cccc(S(=O)(=O)N3CCCC3)c2)cc1C | inconclusive: -6.94% |  |
| Cc1cc(C(=O)NC2CCCc3c2cnn3-c2cc(F)cc(F)c2)nn1C (configuration not stated) | inactive |  |
| CCC(C)N(CC(=O)Nc1cccc(C)c1C)C(=O)CCl (configuration not stated) | inconclusive: -24.5% |  |
| Cc1oc(C(=O)Nc2ccc(C(=O)O)cc2)cc1COc1ccccc1 | inconclusive: -27.7% |  |
| CCOc1ccccc1C1C(C#N)=C(N)Nc2onc(-c3ccccc3)c21 (configuration not stated) | inconclusive: -2.14% |  |
| O=C(OCC(=O)N1CCc2ccccc2C1)c1cccs1 |  | inconclusive: 17.8 µM [falling, single point] |
| O=C(Nc1cc(Cl)cc(Cl)c1)C1C2C=CC3(O2)C1C(=O)N(CCCN1CCOCC1)C3C(=O)NC1CCCCC1 (configuration not stated) | inconclusive: 10.9% |  |

Filtered by structure: those above containing bromine.

| SMILES | activity change, negative = inhibition | Potency |
| --- | --- | --- |
| Cc1ccc(-c2nc3ccccc3[nH]2)cc1NC(=S)NC(=O)c1ccccc1Br | inconclusive: 19.6% |  |
| Nc1nc(Br)c2ccccc2c1-c1ccccc1 |  | inconclusive: 2.24 µM [falling, full curve, poor fit] |

Following part

| SMILES | activity change, negative = inhibition | Potency |
| --- | --- | --- |
| CC(Nc1cc(C)cc(C)c1)=[N+](C)CCNS(=O)(=O)c1ccc(Cl)cc1 | inactive |  |
| COc1cccc(NC(=O)CSc2nc(C)cs2)c1 |  | inconclusive: 29.1 µM [falling, single point] |
| C=CCn1c(Cc2ccc(OC)cc2)nnc1SCC(N)=O | inconclusive: 2.17% |  |
| O=C(O)c1ccc(CS(=O)(=O)c2cccc(C(F)(F)F)c2)o1 | inconclusive: 0.269% |  |
| COCCn1c(N)c(C(=O)Nc2sc3c(c2C(=O)OC)CCCC3)c2nc3ccccc3nc21 | inactive |  |
| O=C(COc1ccc(Cl)cc1)N/N=C/CCc1ccccc1 |  | inconclusive: 35.5 µM [rising, single point] |
| Cn1ccnc1C(=O)c1cccc([N+](=O)[O-])c1 | inactive |  |
| CN(C(=O)c1cc2ccccc2o1)c1c(N)n(Cc2ccccc2)c(=O)[nH]c1=O | inconclusive: 1.68% |  |
| COc1ccc2oc(C(=O)OCC(=O)NC(=O)c3ccccc3)c(C)c2c1 | inconclusive: -0.542% |  |
| O=C(N/N=C/c1cccs1)c1cncc(Br)c1 |  | inconclusive: 28.2 µM [cytotoxic, single point] |
| N#Cc1ccsc1NC(=O)COC(=O)c1ccc2ccccc2c1 |  | inconclusive: 32.6 µM [falling, partial curve, poor fit] |
| c1ccc(-n2ncc3c2ncn2c(C4CCCCC4)nnc32)cc1 | inconclusive: 1.81% |  |
| CCOc1cc(C(=O)Nc2ccc(N3CCN(S(C)(=O)=O)CC3)cc2)cc(OCC)c1OCC | inconclusive: 0.651% |  |
| Cn1c(=O)[nH]c(=O)c2c1nc(N/N=C/C(Br)=C/c1ccccc1)n2CCO | inconclusive: -9.37% |  |
| Nc1nonc1-n1nnc(C(=O)N/N=C/c2cccc(Cl)c2)c1-c1cccs1 |  | inconclusive: 10 µM [rising, partial curve, poor fit] |
| CC1(C)CC2CC(C)(CN2C(=O)COC(=O)c2ccccc2C(F)(F)F)C1 (configuration not stated) | inactive |  |
| COc1ccc(CCNC(=O)CSc2nn3c(=O)c(C)nnc3s2)cc1OC | inconclusive: 5.89% |  |
| CCN(CC)CCNC(=O)CCCCn1c(=S)[nH]c2c([nH]c3ccc(OC)cc32)c1=O | inconclusive: -10.2% |  |
| CCOP(=O)(c1ccc(N(C)C)cc1)C(O)c1c(Cl)cccc1Cl (configuration not stated) | inconclusive: 9.18% |  |
| CC(/C=C/c1ccco1)=N\NC(=O)c1cccc(Cl)c1 |  | inconclusive: 29.1 µM [falling, single point] |
| Cc1cc(-c2nnnn2-c2ccc(F)cc2)no1 | inconclusive: 4.67% |  |
| CCC(CC)C(=O)NCCc1cc2cc(C)c(C)cc2[nH]c1=O |  | inconclusive: 4.11 µM [rising, single point] |
| Cc1cc2oc(=O)cc(COC(=O)c3n[nH]c4ccccc34)c2cc1C |  | inconclusive: 0.58 µM [falling, partial curve, poor fit] |
| O=C(COc1ccccc1F)NC1CC(=O)N(c2ccc3c(c2)OCCO3)C1 (configuration not stated) |  | inconclusive: 35.5 µM [falling, single point] |
| COc1ccc(C(C)=O)cc1COC(=O)CCC(=O)c1cccs1 | inconclusive: -18.3% |  |
| CCSc1nc2sc3c(c2c(=O)n1CC)CCC3 | inconclusive: 4.54% |  |
